Measured data: PubChem BioAssay AID1508597 (Cure First, 2020)

Test: 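Genes whose silencing sensitises or protects ovarian cancer cells against rucaparib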 (primary screen)
Cell system: human ovarian carcinoma lines grown from tumours: OCI-P5x (papillary serous) and OCI-C5x (clear cell)
Reagents: siRNA pool against human genes, 1.25 pmol siRNA per well
Duration: 72 h or 96 h, depending on the cell culture
Conditions: rucaparib 20 µM (about IC30) or vehicle, present until read-out
Rucaparib or vehicle: Vehicle
Cell line: OCI-C5x (clear cell)
Measured: 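ATP luminescence measured at 72 or 96 h according to the culture, then normalised and expressed as percent viability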
Direction: viability, normalised: higher = more viable cells remaining
Rule for the call: 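Active when normalised viability falls below 80 percent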
Meaning of the calls: active = viability under 80%; inactive = viability 80% or more
Shown is a random part of the about 2,100 reagents, under one of the conditions tested. 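Calls flag viability under 80% in either arm, not effects specific to rucaparib; the reference for percent is not stated.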 Entries without a mark were called inactive. Some reagents were tested in more than one well and are listed for each. The record does not give: the 100% reference.

gene	technical replicate	viability, normalised (%)
PSKH1	1	70.6 (active)
PSKH1	2	62.6 (active)
PSKH1	3	61.9 (active)
MPP3	1	54.7 (active)
MPP3	2	38.2 (active)
MPP3	3	36.7 (active)
CSNK1A1	1	58 (active)
CSNK1A1	2	40.8 (active)
CSNK1A1	3	56.9 (active)
ERCC1	1	38.8 (active)
ERCC1	1	43.9 (active)
ERCC1	2	45.3 (active)
ERCC1	2	51.9 (active)
ERCC1	3	38.8 (active)
ERCC1	3	48.2 (active)
TREX2	1	59.3 (active)
TREX2	2	34.9 (active)
TREX2	3	54.9 (active)
DDX60L	1	45.8 (active)
DDX60L	2	50.5 (active)
DDX60L	3	39.6 (active)
POLR2I	1	51.6 (active)
POLR2I	2	44.7 (active)
POLR2I	3	34.5 (active)
JUNB	1	63 (active)
JUNB	2	73.8 (active)
JUNB	3	56 (active)
PLCD4	1	60.7 (active)
PLCD4	2	51.2 (active)
PLCD4	3	61.9 (active)
ATP5F1D	1	77.5 (active)
ATP5F1D	2	82.7
ATP5F1D	3	74.6 (active)
MLH3	1	48 (active)
MLH3	2	58 (active)
MLH3	3	39.7 (active)
VRK1	1	59.4 (active)
VRK1	2	47.4 (active)
VRK1	3	64.8 (active)
XRCC4	1	52.1 (active)
XRCC4	2	68.4 (active)
XRCC4	3	57.5 (active)
SRPK2	1	115
SRPK2	2	72.5 (active)
SRPK2	3	69.1 (active)
PDE6G	1	54.7 (active)
PDE6G	2	60.2 (active)
PDE6G	3	72.8 (active)
SLC17A1	1	31.6 (active)
SLC17A1	2	30.1 (active)
SLC17A1	3	41.6 (active)
MBTD1	1	45.2 (active)
MBTD1	2	35.6 (active)
MBTD1	3	45.4 (active)
SPAG11B	1	63 (active)
SPAG11B	2	49.5 (active)
SPAG11B	3	54.2 (active)

Entries listed so far whose gene name starts with X or x:
gene	technical replicate	viability, normalised (%)
XRCC4	1	52.1 (active)
XRCC4	2	68.4 (active)
XRCC4	3	57.5 (active)
